The text below walks through data of patent US6750197B1, “Activators of endothelial nitric oxide synthase” (Rensselaer Polytechnic Institute, priority 1996, dated 2004).

Results are given in words; binding and its absence hold for the method and conditions named. Some results given as binding are weak or reduced against the parent protein; the word gives no strength.

This assay concerns the target T1, recombinant bovine ENOS (purified from overexpressing E. coli) (bovine) (UniProt P29473).
T1 sequence (looked up): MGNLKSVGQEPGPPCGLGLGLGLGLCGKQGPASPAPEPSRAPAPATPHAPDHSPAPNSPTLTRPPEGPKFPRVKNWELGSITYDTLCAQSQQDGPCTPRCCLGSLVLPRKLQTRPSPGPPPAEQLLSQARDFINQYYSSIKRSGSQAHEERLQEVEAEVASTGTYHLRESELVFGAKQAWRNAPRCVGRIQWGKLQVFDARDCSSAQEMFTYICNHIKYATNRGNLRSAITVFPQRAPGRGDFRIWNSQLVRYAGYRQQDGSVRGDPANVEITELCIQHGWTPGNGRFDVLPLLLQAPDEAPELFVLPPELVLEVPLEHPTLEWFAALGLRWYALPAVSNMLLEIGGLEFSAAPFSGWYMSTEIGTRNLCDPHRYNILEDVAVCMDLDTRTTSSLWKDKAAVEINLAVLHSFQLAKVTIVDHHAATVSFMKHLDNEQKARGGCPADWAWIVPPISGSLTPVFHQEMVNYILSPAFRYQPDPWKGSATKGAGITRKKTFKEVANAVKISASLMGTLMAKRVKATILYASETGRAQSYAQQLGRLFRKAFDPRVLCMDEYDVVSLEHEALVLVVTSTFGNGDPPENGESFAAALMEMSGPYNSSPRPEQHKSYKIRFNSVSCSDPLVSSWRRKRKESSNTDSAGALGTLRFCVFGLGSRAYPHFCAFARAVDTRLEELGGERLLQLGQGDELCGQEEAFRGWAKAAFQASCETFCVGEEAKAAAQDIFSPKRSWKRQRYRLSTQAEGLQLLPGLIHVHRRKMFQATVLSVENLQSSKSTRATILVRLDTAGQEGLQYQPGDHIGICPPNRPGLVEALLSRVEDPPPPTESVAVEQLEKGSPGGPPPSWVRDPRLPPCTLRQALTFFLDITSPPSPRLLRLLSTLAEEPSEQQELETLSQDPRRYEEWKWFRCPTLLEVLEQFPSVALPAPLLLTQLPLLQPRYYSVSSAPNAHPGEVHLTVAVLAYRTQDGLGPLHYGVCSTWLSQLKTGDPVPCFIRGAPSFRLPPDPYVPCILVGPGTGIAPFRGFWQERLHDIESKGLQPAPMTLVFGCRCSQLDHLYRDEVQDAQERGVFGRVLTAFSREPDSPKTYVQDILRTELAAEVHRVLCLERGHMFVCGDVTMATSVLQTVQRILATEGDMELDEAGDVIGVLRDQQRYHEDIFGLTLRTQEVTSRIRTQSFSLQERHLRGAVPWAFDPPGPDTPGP
The assay can be described thus: competition with CAM binding to ENOS.

For SSWRRKRKESS [BO58-08], the binding result is given as “binds”.
